Data as given in article PMC7206007.
No constants are given. Whether binding was seen depends on the method and setting. For some assays here: In cells and extracts the contact can be indirect. Some binding calls cover weakened binding; strength is not graded here.

Amino acid sequences for entries named in this document (tags omitted). A change or cut given only in a name is not applied to a line headed by its entry.
UniProt Q96EB6: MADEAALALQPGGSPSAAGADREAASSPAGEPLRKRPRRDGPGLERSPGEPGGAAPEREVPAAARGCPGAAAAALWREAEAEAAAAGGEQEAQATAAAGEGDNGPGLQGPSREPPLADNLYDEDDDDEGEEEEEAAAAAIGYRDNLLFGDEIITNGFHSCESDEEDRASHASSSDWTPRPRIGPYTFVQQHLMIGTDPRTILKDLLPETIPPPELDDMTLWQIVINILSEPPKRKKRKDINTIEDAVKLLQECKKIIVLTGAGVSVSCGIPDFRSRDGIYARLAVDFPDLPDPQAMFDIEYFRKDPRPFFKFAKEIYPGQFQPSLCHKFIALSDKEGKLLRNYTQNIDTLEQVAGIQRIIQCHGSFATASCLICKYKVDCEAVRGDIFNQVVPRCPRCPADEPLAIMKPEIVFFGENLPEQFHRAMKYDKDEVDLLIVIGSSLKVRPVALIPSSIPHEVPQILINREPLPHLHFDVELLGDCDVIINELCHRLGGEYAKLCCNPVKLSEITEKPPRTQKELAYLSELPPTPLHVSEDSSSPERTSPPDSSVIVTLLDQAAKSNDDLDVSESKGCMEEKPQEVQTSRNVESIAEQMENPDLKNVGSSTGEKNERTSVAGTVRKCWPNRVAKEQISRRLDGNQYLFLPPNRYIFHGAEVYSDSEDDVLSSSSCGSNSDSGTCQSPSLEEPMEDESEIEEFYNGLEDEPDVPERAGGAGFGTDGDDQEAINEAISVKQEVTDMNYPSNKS
UniProt O96017: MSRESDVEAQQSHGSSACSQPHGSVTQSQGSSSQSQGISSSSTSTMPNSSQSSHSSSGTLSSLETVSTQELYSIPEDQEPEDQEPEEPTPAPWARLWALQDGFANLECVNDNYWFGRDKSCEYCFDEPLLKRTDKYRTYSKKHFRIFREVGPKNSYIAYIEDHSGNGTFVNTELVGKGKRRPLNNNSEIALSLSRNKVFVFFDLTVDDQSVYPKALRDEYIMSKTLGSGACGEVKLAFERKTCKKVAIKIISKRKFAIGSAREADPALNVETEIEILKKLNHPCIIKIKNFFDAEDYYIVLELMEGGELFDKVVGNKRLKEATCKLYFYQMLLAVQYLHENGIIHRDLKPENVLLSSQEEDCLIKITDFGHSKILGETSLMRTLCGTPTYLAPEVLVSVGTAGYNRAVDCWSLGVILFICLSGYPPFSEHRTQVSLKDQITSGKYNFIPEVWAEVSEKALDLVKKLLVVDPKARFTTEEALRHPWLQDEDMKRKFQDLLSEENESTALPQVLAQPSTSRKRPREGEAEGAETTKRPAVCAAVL
UniProt Q9Z265: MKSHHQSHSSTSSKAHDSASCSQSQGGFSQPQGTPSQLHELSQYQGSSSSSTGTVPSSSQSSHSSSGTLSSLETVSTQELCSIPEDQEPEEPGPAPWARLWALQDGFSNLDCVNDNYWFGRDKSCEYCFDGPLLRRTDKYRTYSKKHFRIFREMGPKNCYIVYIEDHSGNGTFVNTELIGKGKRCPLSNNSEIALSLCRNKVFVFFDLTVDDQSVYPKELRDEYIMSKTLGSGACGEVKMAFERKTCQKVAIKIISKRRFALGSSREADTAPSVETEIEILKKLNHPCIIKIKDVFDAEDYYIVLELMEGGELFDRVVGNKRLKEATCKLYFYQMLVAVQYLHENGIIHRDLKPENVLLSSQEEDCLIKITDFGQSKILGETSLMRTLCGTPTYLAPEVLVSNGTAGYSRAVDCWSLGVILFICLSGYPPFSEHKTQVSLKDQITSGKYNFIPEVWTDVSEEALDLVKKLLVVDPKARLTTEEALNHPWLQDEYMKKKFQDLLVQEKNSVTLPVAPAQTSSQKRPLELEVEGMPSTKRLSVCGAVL
UniProt Q92831: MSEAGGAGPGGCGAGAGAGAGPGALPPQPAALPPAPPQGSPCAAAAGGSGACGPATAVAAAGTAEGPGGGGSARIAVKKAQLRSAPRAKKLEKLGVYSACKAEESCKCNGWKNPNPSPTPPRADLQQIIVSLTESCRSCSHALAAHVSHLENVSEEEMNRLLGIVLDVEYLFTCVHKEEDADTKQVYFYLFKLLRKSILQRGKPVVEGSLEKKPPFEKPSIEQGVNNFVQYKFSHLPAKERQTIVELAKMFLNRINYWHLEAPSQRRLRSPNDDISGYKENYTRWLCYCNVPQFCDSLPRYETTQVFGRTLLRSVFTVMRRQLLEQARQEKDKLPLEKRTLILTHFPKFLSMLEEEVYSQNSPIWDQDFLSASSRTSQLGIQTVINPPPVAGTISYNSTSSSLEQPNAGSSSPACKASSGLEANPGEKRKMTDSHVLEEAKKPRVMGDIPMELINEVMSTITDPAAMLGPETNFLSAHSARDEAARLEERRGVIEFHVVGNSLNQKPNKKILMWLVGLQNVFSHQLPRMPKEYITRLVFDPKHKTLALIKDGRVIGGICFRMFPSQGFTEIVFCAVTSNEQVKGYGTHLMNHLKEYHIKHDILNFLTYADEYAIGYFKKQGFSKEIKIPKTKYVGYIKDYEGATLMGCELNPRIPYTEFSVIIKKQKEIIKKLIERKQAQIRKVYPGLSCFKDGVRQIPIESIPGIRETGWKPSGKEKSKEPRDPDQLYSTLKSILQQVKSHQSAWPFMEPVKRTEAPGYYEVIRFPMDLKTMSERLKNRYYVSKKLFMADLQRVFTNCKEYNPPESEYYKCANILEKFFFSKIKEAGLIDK
UniProt Q09472: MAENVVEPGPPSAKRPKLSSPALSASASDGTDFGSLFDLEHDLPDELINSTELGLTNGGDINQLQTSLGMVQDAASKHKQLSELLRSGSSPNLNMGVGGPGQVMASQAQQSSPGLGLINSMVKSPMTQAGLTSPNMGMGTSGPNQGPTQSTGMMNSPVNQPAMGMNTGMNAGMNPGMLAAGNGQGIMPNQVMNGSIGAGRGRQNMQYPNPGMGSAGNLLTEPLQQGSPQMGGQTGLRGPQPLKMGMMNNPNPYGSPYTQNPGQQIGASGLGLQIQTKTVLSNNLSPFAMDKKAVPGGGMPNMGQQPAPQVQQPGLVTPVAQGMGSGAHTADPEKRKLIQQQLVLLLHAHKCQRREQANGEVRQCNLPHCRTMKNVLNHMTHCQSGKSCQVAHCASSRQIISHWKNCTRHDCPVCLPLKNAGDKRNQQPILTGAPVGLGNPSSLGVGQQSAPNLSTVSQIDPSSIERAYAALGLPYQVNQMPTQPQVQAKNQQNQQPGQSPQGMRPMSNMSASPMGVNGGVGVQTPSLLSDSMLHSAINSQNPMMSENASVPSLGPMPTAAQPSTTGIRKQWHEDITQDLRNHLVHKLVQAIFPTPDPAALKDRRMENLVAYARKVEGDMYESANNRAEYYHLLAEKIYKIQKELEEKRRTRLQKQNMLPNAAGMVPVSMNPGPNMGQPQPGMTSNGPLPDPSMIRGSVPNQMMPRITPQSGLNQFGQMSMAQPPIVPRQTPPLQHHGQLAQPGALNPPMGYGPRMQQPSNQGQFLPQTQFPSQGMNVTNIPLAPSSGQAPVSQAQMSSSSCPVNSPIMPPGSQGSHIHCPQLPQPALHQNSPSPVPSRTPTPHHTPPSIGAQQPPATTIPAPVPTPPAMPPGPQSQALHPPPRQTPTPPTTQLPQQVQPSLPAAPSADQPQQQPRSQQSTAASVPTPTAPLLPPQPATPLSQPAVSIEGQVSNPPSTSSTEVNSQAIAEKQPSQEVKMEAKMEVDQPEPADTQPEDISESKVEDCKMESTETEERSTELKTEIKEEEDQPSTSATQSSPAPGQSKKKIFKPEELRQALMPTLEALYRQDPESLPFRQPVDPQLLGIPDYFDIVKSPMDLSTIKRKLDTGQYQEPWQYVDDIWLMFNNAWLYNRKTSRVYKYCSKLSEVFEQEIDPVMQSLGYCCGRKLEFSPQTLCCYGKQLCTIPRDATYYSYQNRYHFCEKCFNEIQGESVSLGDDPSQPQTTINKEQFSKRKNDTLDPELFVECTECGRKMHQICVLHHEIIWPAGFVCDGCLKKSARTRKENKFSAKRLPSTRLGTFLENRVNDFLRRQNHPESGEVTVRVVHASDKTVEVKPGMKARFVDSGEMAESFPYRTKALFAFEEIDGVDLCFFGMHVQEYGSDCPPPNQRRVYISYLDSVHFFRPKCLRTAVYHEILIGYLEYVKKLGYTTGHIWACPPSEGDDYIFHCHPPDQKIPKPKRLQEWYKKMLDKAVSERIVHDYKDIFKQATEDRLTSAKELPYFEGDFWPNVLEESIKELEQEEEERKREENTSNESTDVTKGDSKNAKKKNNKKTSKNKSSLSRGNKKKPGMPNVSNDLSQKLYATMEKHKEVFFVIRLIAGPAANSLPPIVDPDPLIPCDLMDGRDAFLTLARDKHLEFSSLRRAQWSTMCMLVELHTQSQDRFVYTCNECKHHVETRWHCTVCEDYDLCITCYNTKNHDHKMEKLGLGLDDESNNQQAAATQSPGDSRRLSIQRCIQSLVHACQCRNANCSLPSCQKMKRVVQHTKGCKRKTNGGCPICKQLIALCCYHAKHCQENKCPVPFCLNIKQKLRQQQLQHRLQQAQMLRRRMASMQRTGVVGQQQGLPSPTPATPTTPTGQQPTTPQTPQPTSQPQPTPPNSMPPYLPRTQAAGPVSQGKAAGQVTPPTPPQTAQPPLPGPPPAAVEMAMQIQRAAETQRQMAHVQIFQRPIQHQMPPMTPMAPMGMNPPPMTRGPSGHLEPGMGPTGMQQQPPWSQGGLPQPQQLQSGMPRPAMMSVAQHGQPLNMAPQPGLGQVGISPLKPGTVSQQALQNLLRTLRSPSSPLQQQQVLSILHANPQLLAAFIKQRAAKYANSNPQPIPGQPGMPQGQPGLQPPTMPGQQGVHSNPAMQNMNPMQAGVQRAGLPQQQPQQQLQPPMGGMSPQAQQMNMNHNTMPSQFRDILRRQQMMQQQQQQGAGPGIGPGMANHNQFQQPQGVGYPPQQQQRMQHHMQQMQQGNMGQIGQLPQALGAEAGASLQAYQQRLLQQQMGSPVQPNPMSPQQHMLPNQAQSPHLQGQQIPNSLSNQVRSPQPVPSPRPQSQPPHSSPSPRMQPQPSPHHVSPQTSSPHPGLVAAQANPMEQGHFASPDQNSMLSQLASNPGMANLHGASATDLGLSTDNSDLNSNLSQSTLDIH

Assays:
[1] = target: SIRT1 (human (endogenous in HEK293)) (UniProt Q96EB6); experiment: co-IP; endogenous proteins; HEK293 cell lysates immunoprecipitated with control IgG, anti-SIRT1 or anti-CHK2 antibodies, 4 °C overnight, protein A/G sepharose; washed with 50 mM Tris pH 7.4, 1% Triton X-100, 0.5% NP-40, 150 mM NaCl
[2] = target: T1, SIRT1 (mouse embryonic fibroblasts) (mouse (endogenous in MEFs)) (UniProt Q923E4); experiment: co-IP; endogenous proteins in mouse embryonic fibroblasts (Fig. S1A)
T1 sequence: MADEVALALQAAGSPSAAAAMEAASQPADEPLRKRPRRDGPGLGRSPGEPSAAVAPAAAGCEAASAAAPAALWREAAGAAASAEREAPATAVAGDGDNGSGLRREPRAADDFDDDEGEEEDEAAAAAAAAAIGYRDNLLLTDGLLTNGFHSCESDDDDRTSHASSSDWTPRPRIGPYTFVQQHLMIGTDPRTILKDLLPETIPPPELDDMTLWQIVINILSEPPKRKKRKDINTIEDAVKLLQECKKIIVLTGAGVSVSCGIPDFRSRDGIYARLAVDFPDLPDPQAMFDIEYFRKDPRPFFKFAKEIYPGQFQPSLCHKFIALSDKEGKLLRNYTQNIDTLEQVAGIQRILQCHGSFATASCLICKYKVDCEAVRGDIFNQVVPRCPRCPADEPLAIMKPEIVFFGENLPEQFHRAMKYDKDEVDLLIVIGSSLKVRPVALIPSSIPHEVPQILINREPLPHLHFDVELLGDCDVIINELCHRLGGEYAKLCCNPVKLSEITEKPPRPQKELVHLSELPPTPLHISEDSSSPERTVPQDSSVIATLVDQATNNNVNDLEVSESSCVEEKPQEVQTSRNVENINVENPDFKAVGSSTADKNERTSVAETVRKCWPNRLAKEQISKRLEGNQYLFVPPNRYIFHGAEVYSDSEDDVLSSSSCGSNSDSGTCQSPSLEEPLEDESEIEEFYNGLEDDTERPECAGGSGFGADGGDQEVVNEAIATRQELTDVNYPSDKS

[3] = target: CHK2 K520Q reintroduced into HCT116 cells (UniProt O96017); experiment: cross-linking; 100 μl whole-cell lysate of HCT116 cells with 5 μl of 2.3% (v/v) glutaraldehyde, 37 °C, 5 min; western blot with antibody against CHK2
[4] = target: CHK2 K520R reintroduced into HCT116 cells (UniProt O96017); experiment: as above
[5] = target: CHK2 wild type reintroduced into HCT116 cells (UniProt O96017); experiment: as above
His-CHK2 = His-CHK2 (UniProt O96017); experiment: co-IP; HEK293 cells co-transfected with Flag-CHK2 (WT or mutant) and His-CHK2, with or without 0.5 μM EX527 for 6 h; IP with anti-His, blot for Flag
[6] = target: CHK2 (human (endogenous in HEK293)) (UniProt O96017); experiment: co-IP; Flag-tagged p300 or PCAF individually transfected into HEK293 cells; IP and western blot; which partner was precipitated is not told
GST-SIRT1 = GST-SIRT1 (UniProt Q96EB6); experiment: pull-down; GST pull-down in vitro; recombinant protein incubated with bacterially expressed GST fusion for 1 h at 30 °C; both purified

## CHK2 (from UniProt O96017 1-543)
[1]
  binding: binds

## CHK2 (mouse embryonic fibroblasts) (from UniProt Q9Z265 1-546)
[2]
  binding: binds

## CHK2 K520Q reintroduced into HCT116 cells (from UniProt O96017 1-543)
[3]
  binding: binds

## CHK2 K520R reintroduced into HCT116 cells (from UniProt O96017 1-543)
[4]
  binding: binds

## CHK2 wild type reintroduced into HCT116 cells (from UniProt O96017 1-543)
[5]
  binding: binds

## Flag-CHK2 K520Q (from UniProt O96017 1-543)
His-CHK2
  binding: binds

## Flag-K520R CHK2 (from UniProt O96017 1-543)
His-CHK2
  binding: binds

## Flag-WT CHK2 (from UniProt O96017 1-543)
His-CHK2
  binding: binds

## Flag-tagged PCAF (from UniProt Q92831 1-832) (enzyme)
[6]
  binding: binds

## Flag-tagged p300 (from UniProt Q09472 1-2414) (enzyme)
[6]
  binding: binds

## Recombinant CHK2 (from UniProt O96017 1-543)
GST-SIRT1
  binding: binds
